{"sequences": {"note": "By UniProt entry, the sequences of proteins in these tests, tags left out.", "UniProt Q03164, whole entry, looked up": "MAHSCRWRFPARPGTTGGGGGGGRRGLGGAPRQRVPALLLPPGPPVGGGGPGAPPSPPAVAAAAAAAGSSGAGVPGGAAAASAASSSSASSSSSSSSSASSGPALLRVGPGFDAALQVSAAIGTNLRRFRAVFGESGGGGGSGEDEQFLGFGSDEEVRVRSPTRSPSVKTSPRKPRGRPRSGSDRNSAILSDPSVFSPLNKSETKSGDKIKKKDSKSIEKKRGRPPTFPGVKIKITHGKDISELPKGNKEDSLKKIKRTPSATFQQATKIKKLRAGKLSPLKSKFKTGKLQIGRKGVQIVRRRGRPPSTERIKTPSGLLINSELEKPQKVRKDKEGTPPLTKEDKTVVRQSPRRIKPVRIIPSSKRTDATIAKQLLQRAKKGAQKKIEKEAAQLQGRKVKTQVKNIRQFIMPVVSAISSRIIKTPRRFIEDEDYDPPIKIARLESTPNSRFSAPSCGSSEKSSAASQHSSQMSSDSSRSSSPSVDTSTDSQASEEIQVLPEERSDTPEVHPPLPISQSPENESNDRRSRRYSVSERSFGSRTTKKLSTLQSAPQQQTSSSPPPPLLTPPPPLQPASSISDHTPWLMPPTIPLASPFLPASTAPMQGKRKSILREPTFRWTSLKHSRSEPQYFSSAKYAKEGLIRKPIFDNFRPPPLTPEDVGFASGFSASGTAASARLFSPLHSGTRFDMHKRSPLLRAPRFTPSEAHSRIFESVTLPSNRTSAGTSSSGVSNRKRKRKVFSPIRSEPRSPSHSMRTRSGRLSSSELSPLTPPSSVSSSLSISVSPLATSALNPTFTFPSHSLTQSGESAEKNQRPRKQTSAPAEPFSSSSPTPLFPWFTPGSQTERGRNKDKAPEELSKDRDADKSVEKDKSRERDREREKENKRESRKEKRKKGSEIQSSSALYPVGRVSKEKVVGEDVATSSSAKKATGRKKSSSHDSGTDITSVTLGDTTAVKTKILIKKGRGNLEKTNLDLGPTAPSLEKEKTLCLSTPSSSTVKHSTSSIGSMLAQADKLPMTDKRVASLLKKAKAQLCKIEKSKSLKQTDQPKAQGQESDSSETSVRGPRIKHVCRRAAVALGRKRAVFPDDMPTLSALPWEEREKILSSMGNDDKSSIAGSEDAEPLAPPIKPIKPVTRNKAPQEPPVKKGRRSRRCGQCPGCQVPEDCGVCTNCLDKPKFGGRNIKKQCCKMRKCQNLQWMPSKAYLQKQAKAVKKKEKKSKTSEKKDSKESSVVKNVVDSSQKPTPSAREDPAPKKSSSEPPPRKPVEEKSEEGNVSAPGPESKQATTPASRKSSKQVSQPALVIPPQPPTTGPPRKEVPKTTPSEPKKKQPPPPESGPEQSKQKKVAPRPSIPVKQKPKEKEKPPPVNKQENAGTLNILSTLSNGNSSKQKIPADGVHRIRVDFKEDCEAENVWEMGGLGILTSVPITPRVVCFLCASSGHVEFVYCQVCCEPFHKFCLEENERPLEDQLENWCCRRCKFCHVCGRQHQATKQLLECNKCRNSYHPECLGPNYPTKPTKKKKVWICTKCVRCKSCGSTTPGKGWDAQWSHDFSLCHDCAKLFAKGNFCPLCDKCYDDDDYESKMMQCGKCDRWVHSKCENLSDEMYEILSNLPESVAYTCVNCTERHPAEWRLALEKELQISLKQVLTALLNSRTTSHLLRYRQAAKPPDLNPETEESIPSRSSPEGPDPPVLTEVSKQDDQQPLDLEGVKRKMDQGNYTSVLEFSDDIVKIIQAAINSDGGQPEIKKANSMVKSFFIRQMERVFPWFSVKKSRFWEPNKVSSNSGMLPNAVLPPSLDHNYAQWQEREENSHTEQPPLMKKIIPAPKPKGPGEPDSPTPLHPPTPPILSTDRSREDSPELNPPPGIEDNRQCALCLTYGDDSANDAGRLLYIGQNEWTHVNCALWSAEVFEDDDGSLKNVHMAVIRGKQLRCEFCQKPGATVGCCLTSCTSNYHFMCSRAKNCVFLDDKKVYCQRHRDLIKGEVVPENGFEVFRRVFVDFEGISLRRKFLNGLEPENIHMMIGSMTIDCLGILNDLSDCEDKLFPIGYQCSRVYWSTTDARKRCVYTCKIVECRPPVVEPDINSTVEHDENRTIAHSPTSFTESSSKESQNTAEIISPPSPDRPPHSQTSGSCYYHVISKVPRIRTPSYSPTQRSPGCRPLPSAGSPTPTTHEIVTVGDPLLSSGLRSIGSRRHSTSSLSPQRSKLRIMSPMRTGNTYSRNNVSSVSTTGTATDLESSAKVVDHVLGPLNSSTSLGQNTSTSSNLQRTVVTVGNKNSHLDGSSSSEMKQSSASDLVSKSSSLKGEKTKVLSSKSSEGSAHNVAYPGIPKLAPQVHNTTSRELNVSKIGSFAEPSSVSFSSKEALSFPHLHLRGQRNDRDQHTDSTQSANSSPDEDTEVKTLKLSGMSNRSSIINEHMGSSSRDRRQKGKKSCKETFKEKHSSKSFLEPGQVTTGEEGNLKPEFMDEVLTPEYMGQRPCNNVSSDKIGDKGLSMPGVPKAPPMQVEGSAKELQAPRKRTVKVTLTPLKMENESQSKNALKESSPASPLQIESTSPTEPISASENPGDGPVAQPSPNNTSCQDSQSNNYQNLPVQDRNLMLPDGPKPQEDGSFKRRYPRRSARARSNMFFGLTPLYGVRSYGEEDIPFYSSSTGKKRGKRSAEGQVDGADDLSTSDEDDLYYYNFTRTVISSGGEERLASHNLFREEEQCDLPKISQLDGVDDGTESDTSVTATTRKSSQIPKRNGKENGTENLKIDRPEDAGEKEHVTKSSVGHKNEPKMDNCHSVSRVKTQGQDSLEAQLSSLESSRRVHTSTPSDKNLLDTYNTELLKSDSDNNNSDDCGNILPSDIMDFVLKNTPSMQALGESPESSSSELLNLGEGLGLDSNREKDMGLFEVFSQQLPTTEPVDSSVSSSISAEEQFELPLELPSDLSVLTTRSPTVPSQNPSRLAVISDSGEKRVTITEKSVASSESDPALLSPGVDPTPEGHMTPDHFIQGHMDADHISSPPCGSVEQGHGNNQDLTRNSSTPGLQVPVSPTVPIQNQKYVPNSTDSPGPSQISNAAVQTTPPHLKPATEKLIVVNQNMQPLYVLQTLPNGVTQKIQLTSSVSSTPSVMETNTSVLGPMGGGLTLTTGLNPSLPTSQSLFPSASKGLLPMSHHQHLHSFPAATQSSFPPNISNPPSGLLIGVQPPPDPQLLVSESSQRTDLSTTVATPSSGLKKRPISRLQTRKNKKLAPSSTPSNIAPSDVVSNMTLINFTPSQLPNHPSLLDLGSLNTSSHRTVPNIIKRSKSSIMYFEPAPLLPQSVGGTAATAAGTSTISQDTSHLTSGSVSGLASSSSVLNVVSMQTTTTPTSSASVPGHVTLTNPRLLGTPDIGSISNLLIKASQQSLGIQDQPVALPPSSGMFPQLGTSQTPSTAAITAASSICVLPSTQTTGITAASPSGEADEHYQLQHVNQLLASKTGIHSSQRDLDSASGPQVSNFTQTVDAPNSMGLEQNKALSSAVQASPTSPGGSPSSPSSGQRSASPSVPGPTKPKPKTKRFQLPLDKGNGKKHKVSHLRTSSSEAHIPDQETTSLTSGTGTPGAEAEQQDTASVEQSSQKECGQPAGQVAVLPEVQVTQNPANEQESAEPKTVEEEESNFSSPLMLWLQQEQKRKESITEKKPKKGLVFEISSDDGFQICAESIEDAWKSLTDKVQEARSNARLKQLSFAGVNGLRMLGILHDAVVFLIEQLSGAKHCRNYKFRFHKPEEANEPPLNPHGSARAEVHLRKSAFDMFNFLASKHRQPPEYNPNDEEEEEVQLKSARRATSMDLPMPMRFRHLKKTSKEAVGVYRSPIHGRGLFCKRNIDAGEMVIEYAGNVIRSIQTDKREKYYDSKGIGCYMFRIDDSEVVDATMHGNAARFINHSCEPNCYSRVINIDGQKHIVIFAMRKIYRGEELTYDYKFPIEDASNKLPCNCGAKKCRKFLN"}, "source": "PubChem BioAssay AID2662", "about": "(National Center for Advancing Translational Sciences (NCATS), 2010)", "note": "The whole screen tested about 290,000 compounds, of which about 110 (0.038%) were called active. This list was built around the results that the source calls inconclusive (neither active nor inactive); the mix of calls is not that of the screen. Calls follow the shape of the dose curve; as a rule, active = well fitted inhibition curve with a large enough effect in the polarisation, with a control signal flat (not every such curve was filed as active); inconclusive = small, poorly fitted or top-dose-only effect, or effect the other way, or a change in a side signal; inactive = no such curve, though single readings can be large or run the other way; the % refers to the polarisation. Potencies beside an inconclusive call are fits to weak or partial responses and may not hold up. A note “side channel” means that the fit belongs to a control or component signal, not to the main read-out."}
{"biological_target": "Histone-lysine N-methyltransferase 2A (Homo sapiens) (UniProt Q03164)", "assay": "qHTS Fluorescence Polarization Assay for Inhibitors of MLL CXXC domain - DNA interaction; also: potency is read from the fitted curve at half-maximal effect", "conditions": "MLL-CXXC / FITC-HOXA9 DNA fluorescence polarization; activity change, negative = inhibition: at 115 µM (top of the series)", "summary_of_the_method": "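Fluorescence polarization: 7 uM MLL-CXXC (stock) preincubated 5 min with compounds, then 50 nM fluorescein-HOX-A9 DNA (stock) added; 30 min ambient. Buffer 50 mM Tris-HCl pH 7.5, 50 mM NaCl, 1 mM DTT, 0.05% BSA.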"}
{"molecule": "CCOc1cc(C2C(C#N)=C(N)OC(C)=C2C(C)=O)cc(Br)c1O", "note": "(stereo not given)", "Potency": "inconclusive: 35.5 µM [fluorescent, side channel, single point]"}
{"molecule": "O=C(N/N=C1\\C(=O)c2cccc3cccc1c23)c1ccc(O)cc1", "Potency": "inconclusive: 20 µM [fluorescent, side channel, partial curve]"}
{"molecule": "Cc1noc2ncnc(Oc3ccccc3)c12", "activity change, negative = inhibition": "inactive: 8.23%"}
{"molecule": "O=C(c1ccco1)N1CCN(C2CC(=O)N(c3ccc(F)c(Cl)c3)C2=O)CC1", "note": "(stereo not given)", "activity change, negative = inhibition": "inactive: 30.1%"}
{"molecule": "Cc1cc(C)cc(NC(=O)c2ccc3nc[nH]c3c2)c1", "Potency": "inconclusive: 56.2 µM [inhibitor, single point]"}
{"molecule": "CC/C(=C(/CC)c1ccc(O)cc1)c1ccc(O)cc1", "Potency": "inconclusive: 10 µM [fluorescent, side channel, partial curve]"}
{"molecule": "CCC(=O)N1CCCN(S(=O)(=O)c2ccc(C)cc2)C1c1ccc(OC)cc1", "note": "(stereo not given)", "Potency": "inconclusive: 35.5 µM [fluorescent, side channel, single point]"}
{"molecule": "O=C1C(Cl)=C(NCCCO)C(=O)c2ccccc21", "activity change, negative = inhibition": "inactive: -5.5%"}
{"molecule": "Cc1nn(-c2ccccc2)c(Cl)c1C(=O)NC1CCCCC1", "Potency": "inconclusive: 5.62 µM [inhibitor, full curve, poor fit]"}
{"molecule": "C=CCn1c(=N)n(CC(=O)c2ccc(Br)cc2)c2ccccc21", "Potency": "inconclusive: 31.6 µM [quencher, partial curve]"}
{"molecule": "COc1ccccc1NC(=S)N1CCC(c2nc3cc(C)c(C)cc3[nH]2)CC1", "activity change, negative = inhibition": "inactive: -12.3%"}
{"molecule": "Cn1nc(C(=O)N2CCN(c3ccc(Cl)cc3)CC2)c2c1-c1ccccc1S(=O)(=O)C2", "activity change, negative = inhibition": "inactive: -0.615%"}
{"molecule": "O=C(O)c1cccc2c(/C=N/Nc3ccccn3)c[nH]c12", "Potency": "inconclusive: 2.82 µM [inhibitor, full curve, poor fit]"}
{"molecule": "COc1ccc(OCc2cc(C(=O)NC(C)Cc3cnccn3)no2)c(Cl)c1", "note": "(stereo not given)", "activity change, negative = inhibition": "inactive: 12.6%"}
{"molecule": "CSc1ccc2c(c1)N(CCC1CCCCN1C)c1ccccc1S2", "note": "(stereo not given)", "Potency": "inconclusive: 89.1 µM [quencher, side channel, single point]"}
{"molecule": "O=C(CSc1n[nH]c(=O)[nH]c1=O)N/N=C/C=C\\c1ccccc1", "activity change, negative = inhibition": "inconclusive: -12.7% [phenotype inactive]"}
{"molecule": "CCCCN(C)C1=CC2=CC(=C(C#N)C#N)CCC2CC1", "note": "(stereo not given)", "Potency": "inconclusive: 112 µM [fluorescent, side channel, partial curve, poor fit]"}
{"molecule": "O=C(NC(=S)Nc1cc([N+](=O)[O-])ccc1Cl)c1ccccc1", "activity change, negative = inhibition": "inactive: -0.465%"}
{"molecule": "CC(C)C(=O)Nc1ccc(NC(=S)NC(=O)c2ccccc2F)cc1", "activity change, negative = inhibition": "inactive: 10.5%"}
{"molecule": "Cn1c(=O)n(Cc2ccccc2Cl)c(=O)c2c1[nH]c(=S)n2C", "Potency": "inconclusive: 11.2 µM [fluorescent, side channel, partial curve]"}
{"molecule": "COc1ccc(-n2c(C)c(C)c3c(NCCCO)ncnc32)cc1", "Potency": "inconclusive: 3.98 µM [fluorescent, side channel, partial curve]"}
{"molecule": "O=C(NCCCN1CCCCC1)c1ccc2c(=O)n(CCc3ccccc3)c(=O)[nH]c2c1", "Potency": "inconclusive: 8.91 µM [inhibitor, single point]"}
{"molecule": "Cc1ccccc1NC(=O)CSc1n[nH]c(-c2ccccn2)n1", "activity change, negative = inhibition": "inactive: 7.48%"}
{"molecule": "Cc1cc(C)cc(NC(=O)CN(c2ccc(F)cc2)S(C)(=O)=O)c1", "Potency": "inconclusive: 31.6 µM [quencher, side channel, single point]"}
{"molecule": "CC(NC(=O)c1ccccc1F)c1nnc(SCc2nc3ccccc3c(=O)[nH]2)n1C", "note": "(stereo not given)", "Potency": "inconclusive: 3.16 µM [fluorescent, side channel, full curve]"}
{"molecule": "CCOC(=O)c1sc2nc3c(SCCC(=O)O)cc(C(=O)c4cc(OC)ccc4O)cn3c(=O)c2c1C", "Potency": "inconclusive: 10 µM [fluorescent, side channel, partial curve]"}
{"molecule": "O=C(CSc1ccc(Cl)cc1)N1CCN(c2ccc([N+](=O)[O-])cc2Cl)CC1", "activity change, negative = inhibition": "inactive: 7.02%"}
{"molecule": "CCN1CCN(C(=O)c2[nH]c3ccc(OC)cc3c2C)CC1", "Potency": "inconclusive: 70.8 µM [fluorescent, side channel, single point]"}
{"molecule": "CCCCC(=O)Oc1cc(C)[nH]c(=O)c1[N+](=O)[O-]", "Potency": "inconclusive: 35.5 µM [fluorescent, side channel, single point]"}
{"molecule": "COc1ccc(S(=O)(=O)N2CCOC2CNC(=O)C(=O)NCc2ccc3c(c2)OCO3)cc1OC", "note": "(stereo not given)", "Potency": "inconclusive: 8.91 µM [fluorescent, side channel, full curve, poor fit]"}
{"molecule": "N=c1oc2c3c4c(cc2cc1C(=O)Nc1ccccc1)CCCN4CCC3", "Potency": "inconclusive: 22.4 µM [fluorescent, side channel, partial curve, poor fit]"}
{"molecule": "Cc1ccc(N2C(=O)C3N=NN(CC(=O)N4N=C(c5ccccc5)CC4c4ccccc4)C3C2=O)cc1", "note": "(stereo not given)", "activity change, negative = inhibition": "inactive: 5.49%"}
{"molecule": "CCSC1=NSC2=NC(=O)/C(=C\\c3coc4ccccc4c3=O)C(=N)N12", "Potency": "inconclusive: 5.01 µM [fluorescent, side channel, full curve]"}
{"molecule": "C[C@H](CN1c2ccccc2Sc2cccnc21)N(C)C", "Potency": "inconclusive: 44.7 µM [inhibitor, partial curve]"}
{"molecule": "COc1ccc(/C=C2\\SC(=S)N(CCC(=O)Nc3ccc(C(=O)O)cc3)C2=O)cc1OC", "Potency": "inconclusive: 22.4 µM [fluorescent, side channel, partial curve]"}
{"molecule": "Cc1cccc2c1NC(C)CC2C", "note": "(stereo not given)", "activity change, negative = inhibition": "inactive: -1.15%"}
{"molecule": "CC(=O)Oc1ccc2c(c1)Oc1cc(OC(C)=O)ccc1C21OC(=O)c2ccccc21", "Potency": "inconclusive: 0.282 µM [fluorescent, side channel, full curve, poor fit]"}
{"molecule": "CCOc1cc(/C=C2\\C(=N)N3N=CSC3=NC2=O)ccc1OS(=O)(=O)c1ccccc1", "Potency": "inconclusive: 7.08 µM [inhibitor, full curve]"}
{"molecule": "CCN(CC)c1ccc(C=Nc2ccc(N(C)C)cc2)c(O)c1", "Potency": "inconclusive: 70.8 µM [fluorescent, side channel, single point]"}
